The text below walks through data of PubChem BioAssay AID256 (DTP/NCI, 2004).

The list is a part of this screen's results and no random one: it gathers tests that were run many times, whatever their T/C, doses with no T/C, and many T/C values between a quarter and a half above the control. Further doses and runs are listed elsewhere. T/C is the treated group as % of the vehicle group. Some entries give survivors of the animals treated and no T/C: the source files T/C as zero there, which appears to mark a toxic dose or a test without result, not a measured value. Some doses without a T/C left all or most animals alive at the check, yet need not have been tolerated: survival well below the control is almost never listed, so the zero probably covers shortened survival too. Counts of survivors are from the toxicity check (mostly the fifth day) where no day follows; animals may have died later. Schedules are NCI's codes, taken here to give the interval after Q, in days (D) or hours (H), and the number of doses after X. Some entries were tested several times; the results are listed from low to high. For survival time, the PubChem record calls one and a half times the control and up active, and a quarter to a half above the control has no call in these data; cut-offs in other NCI protocols can differ.

In this test the test system is CD2F1 mice, L1210 leukemia ip, survival T/C. In words: NCI In Vivo Anticancer Drug Screen. Data for tumor model L1210 Leukemia (intraperitoneal) in CD2F1 (CDF1) mice. The note with it: higher T/C = longer survival. An outline of the steps:
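Compound-dosed mice with transplantable tumor versus matched vehicle controls; endpoint ratio T/C reported.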

The mark [1] stands for this setting: T/C endpoint: mean survival time, dose: 400.0 mg/kg/injection, schedule: Q01DX001 (ip), vehicle: saline with Tween-80.
Where [2] appears, read: T/C endpoint: mean survival time, dose: 200.0 mg/kg/injection, schedule: Q01DX009 (ip), vehicle: saline.
[3] abbreviates: T/C endpoint: mean survival time, dose: 50.0 mg/kg/injection, schedule: Q01DX009 (ip), vehicle: water.
[4] abbreviates: T/C endpoint: mean survival time, dose: 400.0 mg/kg/injection, schedule: Q01DX009 (ip), vehicle: saline with Tween-80.
The mark [5] stands for this setting: T/C endpoint: mean survival time, dose: 400.0 mg/kg/injection, schedule: Q04DX003 (ip), vehicle: saline with Tween-80.
Where [6] appears, read: T/C endpoint: mean survival time, dose: 400.0 mg/kg/injection, schedule: Q04DX002 (ip), vehicle: saline with Tween-80.
[7] abbreviates: T/C endpoint: median survival time, dose: 100.0 mg/kg/injection, schedule: Q01DX009 (ip), vehicle: saline.
Where [8] appears, read: T/C endpoint: mean survival time, dose: 200.0 mg/kg/injection, schedule: Q04DX003 (ip), vehicle: saline with Tween-80.

As for `CCOC(=O)Nc1cc(NCc2ccccc2)c(N)c(N)n1`, the survivor count under setting [1] is on record as 1 of 6.

For the compound `Cc1ccn2c(=O)c(CCBr)c(C)nc2c1`, the survivor count is 0 of 6 (T/C endpoint: mean survival time, dose: 150.0 mg/kg/injection, schedule: Q01DX001 (ip), vehicle: saline) and 0 of 6 (T/C endpoint: mean survival time, dose: 300.0 mg/kg/injection, schedule: Q01DX001 (ip), vehicle: saline).

On to `Cc1cc(SCC(=O)c2ccc(Br)cc2)cc(C)[o+]1`, for which the survivor count by setting is: (T/C endpoint: mean survival time, dose: 100.0 mg/kg/injection, schedule: Q01DX009 (ip), vehicle: saline) 2 of 6; under setting [2], 3 of 6.

For `O=Nc1c(S(=O)(=O)O)cc2cc(S(=O)(=O)O)cc(O)c2c1O.[Cu+2]`, the survivor count by setting is: (T/C endpoint: mean survival time, dose: 1.25 mg/kg/injection, schedule: Q01DX009 (ip), vehicle: saline) 2 of 6; (T/C endpoint: mean survival time, dose: 2.5 mg/kg/injection, schedule: Q01DX009 (ip), vehicle: saline) 1 of 6; (T/C endpoint: mean survival time, dose: 5.0 mg/kg/injection, schedule: Q01DX009 (ip), vehicle: saline) 1 of 6; (T/C endpoint: mean survival time, dose: 10.0 mg/kg/injection, schedule: Q04DX003 (ip), vehicle: saline) 0 of 6; (T/C endpoint: mean survival time, dose: 20.0 mg/kg/injection, schedule: Q04DX003 (ip), vehicle: saline) 0 of 6; (T/C endpoint: mean survival time, dose: 40.0 mg/kg/injection, schedule: Q04DX003 (ip), vehicle: saline) 0 of 6.

Take `O=C(O)C(O)C(O)C(=O)O.[NH-]C1CCCCC1[NH-].[Pt+2]` (stereo not given): the T/C is, setting by setting: (T/C endpoint: mean survival time, dose: 3.13 mg/kg/injection, schedule: Q04DX003 (ip), vehicle: water) 129 % of control; (T/C endpoint: mean survival time, dose: 6.25 mg/kg/injection, schedule: Q04DX003 (ip), vehicle: water) 144 % of control.

For the compound `CCCCN=[N+]=[N-]`, the survivor count was 6 of 6 under setting [3] and 6 of 6 (T/C endpoint: mean survival time, dose: 400.0 mg/kg/injection, schedule: Q01DX009 (ip), vehicle: water).

With `COc1cc(CC#N)ccc1OCc1ccccc1`, the survivor count runs as follows: (T/C endpoint: mean survival time, dose: 100.0 mg/kg/injection, schedule: Q04DX003 (ip), vehicle: other) 0 of 6; (T/C endpoint: mean survival time, dose: 200.0 mg/kg/injection, schedule: Q04DX003 (ip), vehicle: other) 1 of 6; (T/C endpoint: mean survival time, dose: 400.0 mg/kg/injection, schedule: Q04DX003 (ip), vehicle: other) 0 of 6.

With `Cc1nc(C(=O)O)c(C(=O)O)[nH]1`, the survivor count under setting [4] is reported as 0 of 6 and the survivor count under setting [5] is recorded as 2 of 6.

Regarding `O=C(c1ccccc1)C(Br)C(Br)c1ccccc1` (stereo not given), the survivor count (T/C endpoint: mean survival time, dose: 100.0 mg/kg/injection, schedule: Q01DX001 (ip), vehicle: saline with Tween-80) was 6 of 6.

With `CN(CCC#N)c1ccc(C(=C2C=CC(=Nc3ccccc3)c3ccccc32)c2ccc(N(C)CCC#N)cc2)cc1`, the survivor count under setting [6] is given as 2 of 3.

Turning to `CCCCCCCCCCCCCCCC(=O)N(CCCN)CCCN(CCCN)C(=O)CCCCCCCCCCCCCCC`, for the setting “T/C endpoint: mean survival time, dose: 100.0 mg/kg/injection, schedule: Q01DX009 (ip), vehicle: saline with Tween-80”, the survivor count is recorded as 1 of 6.

On to `O=[N+]([O-])c1c(O)c(CNCCCO)cc(CNCCCO)c1O`, for which the survivor count was 4 of 6 under setting [7] and 0 of 6 (T/C endpoint: median survival time, dose: 200.0 mg/kg/injection, schedule: Q01DX009 (ip), vehicle: saline).

As to `O/N=C1/C2CCC(C2)C1C(O)(C(F)(F)F)C(F)(F)F` (stereo not given), under setting [1], the survivor count is listed as 0 of 6.

As for `CC(=O)Nc1cc(N)cc(-c2ccccc2)c1`, the T/C is 91, 100, 104, 122 % of control (T/C endpoint: mean survival time, dose: 100.0 mg/kg/injection, schedule: Q04DX002 (ip), vehicle: saline with Tween-80); 95, 100, 108, 125 % of control (T/C endpoint: mean survival time, dose: 200.0 mg/kg/injection, schedule: Q04DX002 (ip), vehicle: saline with Tween-80); 91, 92, 103, 112 % of control under setting [6].

As to `N#CC(=C1CCN(Cc2ccccc2)CC1)c1ccccc1`, where the note is “T/C endpoint: median survival time, dose: 400.0 mg/kg/injection, schedule: Q04DX002 (ip), vehicle: saline with Tween-80”, the survivor count was 1 of 3.

As to `CC(=O)ON1C(=O)C2C3C=CC(O3)C2C1=O` (stereo not given), the survivor count by setting is: (T/C endpoint: mean survival time, dose: 100.0 mg/kg/injection, schedule: Q01DX009 (ip), vehicle: water) 3 of 6; (T/C endpoint: mean survival time, dose: 200.0 mg/kg/injection, schedule: Q01DX009 (ip), vehicle: water) 1 of 6.

As to `O=C(O)C(O)C(O)C1[O][Sb][O]C1C(=O)O` (stereo not given), the survivor count under setting [7] is on record as 0 of 6.

In the case of `CCOC(=O)Nc1nccs1`, the survivor count reads like this: (T/C endpoint: mean survival time, dose: 200.0 mg/kg/injection, schedule: Q01DX009 (ip), vehicle: saline with Tween-80) 3 of 6; (T/C endpoint: mean survival time, dose: 400.0 mg/kg/injection, schedule: Q04DX003 (ip), vehicle: Klucel (hydroxypropylcellulose) (HPC)) 0 of 3.

In the case of `C[n+]1c(-c2ccc(/C=N/NC(=O)c3ccc(C(=O)N/N=C/c4ccc(-c5cn6ccccc6[n+]5C)cc4)cc3)cc2)cn2ccccc21`, the T/C was 142 % of control (T/C endpoint: median survival time, dose: 50.0 mg/kg/injection, schedule: Q01DX005 (ip), vehicle: saline with Tween-80); 141 % of control (T/C endpoint: median survival time, dose: 555.55 mg/kg/injection, schedule: Q01DX005 (ip), vehicle: saline with Tween-80); 137 % of control (T/C endpoint: median survival time, dose: 925.91 mg/kg/injection, schedule: Q01DX005 (ip), vehicle: saline with Tween-80).

On to `COC(=O)C(N)CSCSCc1ccccc1` (stereo not given), for which the survivor count by setting is: (T/C endpoint: mean survival time, dose: 200.0 mg/kg/injection, schedule: Q01DX005 (ip), vehicle: water) 1 of 6; (T/C endpoint: mean survival time, dose: 400.0 mg/kg/injection, schedule: Q01DX005 (ip), vehicle: water) 0 of 6.

For `CN(C)Cc1cc(C(C)(C)C)cc(CN(C)C)c1O`, the survivor count reads like this: (T/C endpoint: mean survival time, dose: 20.0 mg/kg/injection, schedule: Q01DX009 (ip), vehicle: saline with Tween-80) 2 of 6; (T/C endpoint: mean survival time, dose: 40.0 mg/kg/injection, schedule: Q01DX009 (ip), vehicle: saline with Tween-80) 0 of 6.

In the case of `COc1ccc(-c2csc(=[N+]3CCCCC3)s2)cc1`, the survivor count under setting [3] is 0 of 10 and 0 of 6.

In the case of `CC(=O)NC(CSC(c1ccccc1)(c1ccccc1)c1ccccc1)C(=O)O` (stereo not given), the survivor count under setting [2] is 1 of 6 and the survivor count (T/C endpoint: mean survival time, dose: 400.0 mg/kg/injection, schedule: Q01DX009 (ip), vehicle: saline) is 0 of 6.

`CSc1ncnc2c1nnn2C1OC(COC(=O)c2ccccc2)C(OC(=O)c2ccccc2)C1OC(=O)c1ccccc1` (stereo not given): the T/C is 133 % of control (T/C endpoint: median survival time, dose: 100.0 mg/kg/injection, schedule: Q01DX005 (ip), vehicle: Klucel (hydroxypropylcellulose) (HPC)); 133 and 145 % of control (T/C endpoint: median survival time, dose: 200.0 mg/kg/injection, schedule: Q01DX005 (ip), vehicle: Klucel (hydroxypropylcellulose) (HPC)).

Take `CC(=O)OC12C=C(C)C(C3C(=O)OC(=O)C31)C(C)(C)C2` (stereo not given): the survivor count (T/C endpoint: mean survival time, dose: 400.0 mg/kg/injection, schedule: Q01DX001 (ip), vehicle: saline) is 2 of 6.

Take `CC(C)C(C=O)C(O)(C(F)(F)F)C(F)(F)Cl` (stereo not given): the survivor count reads like this: under setting [8], 0 of 6; under setting [5], 0 of 6.

In the case of `C=COCCN1CCN(CCCN2c3ccccc3Sc3ccc(C(F)(F)F)cc32)CC1`, the survivor count is recorded as 3 of 3 (T/C endpoint: mean survival time, dose: 50.0 mg/kg/injection, schedule: Q04DX003 (ip), vehicle: saline with Tween-80); 2 of 6 (T/C endpoint: mean survival time, dose: 100.0 mg/kg/injection, schedule: Q04DX003 (ip), vehicle: saline with Tween-80); 0 of 6 under setting [8]; 0 of 6 under setting [5].

With `CC(C)(C)Sc1cccnc1` (tested in a mixture with another compound), the survivor count under setting [4] is 0 of 6.

Take `O=C(Cl)c1ccccc1Sc1ccccc1`: the survivor count is reported as 2 of 6 under setting [8] and 1 of 6 under setting [5].

Consider `O=S(=O)(O)Sc1ccccc1`, for which the survivor count (T/C endpoint: mean survival time, dose: 100.0 mg/kg/injection, schedule: Q04DX003 (ip), vehicle: saline) is 2 of 6; the survivor count (T/C endpoint: mean survival time, dose: 200.0 mg/kg/injection, schedule: Q04DX003 (ip), vehicle: saline) was 0 of 6; the survivor count (T/C endpoint: mean survival time, dose: 400.0 mg/kg/injection, schedule: Q04DX003 (ip), vehicle: saline) is listed as 0 of 6.
